Assay: Midazolam and 1-hydroxymidazolam plasma PK, DDI study stage 1
Conditions: human, po, 4 mg

Cc1ncc2n1-c1ccc(Cl)cc1C(c1ccccc1F)=NC2 [Midazolam, midazolam]
half-life: 2.7 h

From publication PMC9199882 (Clinical and Translational Science, 2022)
